For 6 molecules, binding results are on record in publication PMC10042835.

First the molecules themselves.
T1: phyB-GFP (Arabidopsis thaliana), P14713
T1 chain: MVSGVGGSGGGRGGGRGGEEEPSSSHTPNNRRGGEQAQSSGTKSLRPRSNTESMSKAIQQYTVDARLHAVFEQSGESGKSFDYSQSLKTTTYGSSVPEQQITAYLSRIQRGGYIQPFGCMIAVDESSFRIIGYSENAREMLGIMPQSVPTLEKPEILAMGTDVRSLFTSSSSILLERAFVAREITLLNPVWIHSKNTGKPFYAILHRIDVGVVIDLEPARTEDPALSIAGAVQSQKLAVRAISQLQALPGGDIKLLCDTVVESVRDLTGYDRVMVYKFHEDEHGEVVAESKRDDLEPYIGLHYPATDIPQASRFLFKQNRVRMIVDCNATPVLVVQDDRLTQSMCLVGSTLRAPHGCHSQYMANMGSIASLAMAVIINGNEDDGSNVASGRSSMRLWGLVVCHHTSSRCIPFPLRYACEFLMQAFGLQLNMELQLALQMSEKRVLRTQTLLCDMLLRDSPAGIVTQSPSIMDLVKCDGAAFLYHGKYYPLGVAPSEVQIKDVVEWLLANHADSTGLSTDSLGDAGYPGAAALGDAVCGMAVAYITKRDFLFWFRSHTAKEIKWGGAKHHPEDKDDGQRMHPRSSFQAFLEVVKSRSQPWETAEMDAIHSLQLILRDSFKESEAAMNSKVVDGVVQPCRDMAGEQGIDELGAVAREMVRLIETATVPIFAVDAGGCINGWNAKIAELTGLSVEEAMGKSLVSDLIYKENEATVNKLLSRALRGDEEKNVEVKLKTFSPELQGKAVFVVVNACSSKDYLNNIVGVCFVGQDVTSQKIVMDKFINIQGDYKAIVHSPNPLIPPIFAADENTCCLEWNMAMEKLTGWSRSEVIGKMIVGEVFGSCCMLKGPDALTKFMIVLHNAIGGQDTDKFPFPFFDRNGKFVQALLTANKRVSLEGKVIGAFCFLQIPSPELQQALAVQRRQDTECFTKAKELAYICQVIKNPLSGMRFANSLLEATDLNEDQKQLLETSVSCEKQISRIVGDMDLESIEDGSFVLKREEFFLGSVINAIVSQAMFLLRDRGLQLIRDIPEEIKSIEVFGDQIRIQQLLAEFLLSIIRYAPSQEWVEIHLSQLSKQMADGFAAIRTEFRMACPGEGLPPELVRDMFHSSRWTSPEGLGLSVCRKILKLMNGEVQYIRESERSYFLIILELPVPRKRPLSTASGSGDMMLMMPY

B1: CONSTITUTIVELY PHOTOMORPHOGENIC 1 (COP1), P43254 1-675 (protein)
chain: MEEISTDPVVPAVKPDPRTSSVGEGANRHENDDGGSGGSEIGAPDLDKDLLCPICMQIIKDAFLTACGHSFCYMCIITHLRNKSDCPCCSQHLTNNQLYPNFLLDKLLKKTSARHVSKTASPLDQFREALQRGCDVSIKEVDNLLTLLAERKRKMEQEEAERNMQILLDFLHCLRKQKVDELNEVQTDLQYIKEDINAVERHRIDLYRARDRYSVKLRMLGDDPSTRNAWPHEKNQIGFNSNSLSIRGGNFVGNYQNKKVEGKAQGSSHGLPKKDALSGSDSQSLNQSTVSMARKKRIHAQFNDLQECYLQKRRQLADQPNSKQENDKSVVRREGYSNGLADFQSVLTTFTRYSRLRVIAEIRHGDIFHSANIVSSIEFDRDDELFATAGVSRCIKVFDFSSVVNEPADMQCPIVEMSTRSKLSCLSWNKHEKNHIASSDYEGIVTVWDVTTRQSLMEYEEHEKRAWSVDFSRTEPSMLVSGSDDCKVKVWCTRQEASVINIDMKANICCVKYNPGSSNYIAVGSADHHIHYYDLRNISQPLHVFSGHKKAVSYVKFLSNNELASASTDSTLRLWDVKDNLPVRTFRGHTNEKNFVGLTVNSEYLACGSETNEVYVYHKEITRPVTSHRFGSPDMDDAEEEAGSYFISAVCWKSDSPTMLTANSQGTIKVLVLAA
B2: phyC (receptor, UniProt P14714 1-1111)
chain: MSSNTSRSCSTRSRQNSRVSSQVLVDAKLHGNFEESERLFDYSASINLNMPSSSCEIPSSAVSTYLQKIQRGMLIQPFGCLIVVDEKNLKVIAFSENTQEMLGLIPHTVPSMEQREALTIGTDVKSLFLSPGCSALEKAVDFGEISILNPITLHCRSSSKPFYAILHRIEEGLVIDLEPVSPDEVPVTAAGALRSYKLAAKSISRLQALPSGNMLLLCDALVKEVSELTGYDRVMVYKFHEDGHGEVIAECCREDMEPYLGLHYSATDIPQASRFLFMRNKVRMICDCSAVPVKVVQDKSLSQPISLSGSTLRAPHGCHAQYMSNMGSVASLVMSVTINGSDSDEMNRDLQTGRHLWGLVVCHHASPRFVPFPLRYACEFLTQVFGVQINKEAESAVLLKEKRILQTQSVLCDMLFRNAPIGIVTQSPNIMDLVKCDGAALYYRDNLWSLGVTPTETQIRDLIDWVLKSHGGNTGFTTESLMESGYPDASVLGESICGMAAVYISEKDFLFWFRSSTAKQIKWGGARHDPNDRDGKRMHPRSSFKAFMEIVRWKSVPWDDMEMDAINSLQLIIKGSLQEEHSKTVVDVPLVDNRVQKVDELCVIVNEMVRLIDTAAVPIFAVDASGVINGWNSKAAEVTGLAVEQAIGKPVSDLVEDDSVETVKNMLALALEGSEERGAEIRIRAFGPKRKSSPVELVVNTCCSRDMTNNVLGVCFIGQDVTGQKTLTENYSRVKGDYARIMWSPSTLIPPIFITNENGVCSEWNNAMQKLSGIKREEVVNKILLGEVFTTDDYGCCLKDHDTLTKLRIGFNAVISGQKNIEKLLFGFYHRDGSFIEALLSANKRTDIEGKVTGVLCFLQVPSPELQYALQVQQISEHAIACALNKLAYLRHEVKDPEKAISFLQDLLHSSGLSEDQKRLLRTSVLCREQLAKVISDSDIEGIEEGYVELDCSEFGLQESLEAVVKQVMELSIERKVQISCDYPQEVSSMRLYGDNLRLQQILSETLLSSIRFTPALRGLCVSFKVIARIEAIGKRMKRVELEFRIIHPAPGLPEDLVREMFQPLRKGTSREGLGLHITQKLVKLMERGTLRYLRESEMSAFVILTEFPLI
B3: phyE (receptor, UniProt P42498 1-1112)
chain: MGFESSSSAASNMKPQPQKSNTAQYSVDAALFADFAQSIYTGKSFNYSKSVISPPNHVPDEHITAYLSNIQRGGLVQPFGCLIAVEEPSFRILGLSDNSSDFLGLLSLPSTSHSGEFDKVKGLIGIDARTLFTPSSGASLSKAASFTEISLLNPVLVHSRTTQKPFYAILHRIDAGIVMDLEPAKSGDPALTLAGAVQSQKLAVRAISRLQSLPGGDIGALCDTVVEDVQRLTGYDRVMVYQFHEDDHGEVVSEIRRSDLEPYLGLHYPATDIPQAARFLFKQNRVRMICDCNATPVKVVQSEELKRPLCLVNSTLRAPHGCHTQYMANMGSVASLALAIVVKGKDSSKLWGLVVGHHCSPRYVPFPLRYACEFLMQAFGLQLQMELQLASQLAEKKAMRTQTLLCDMLLRDTVSAIVTQSPGIMDLVKCDGAALYYKGKCWLVGVTPNESQVKDLVNWLVENHGDDSTGLTTDSLVDAGYPGAISLGDAVCGVAAAGFSSKDYLLWFRSNTASAIKWGGAKHHPKDKDDAGRMHPRSSFTAFLEVAKSRSLPWEISEIDAIHSLRLIMRESFTSSRPVLSGNGVARDANELTSFVCEMVRVIETATAPIFGVDSSGCINGWNKKTAEMTGLLASEAMGKSLADEIVQEESRAALESLLCKALQGEEEKSVMLKLRKFGQNNHPDYSSDVCVLVNSCTSRDYTENIIGVCFVGQDITSEKAITDRFIRLQGDYKTIVQSLNPLIPPIFASDENACCSEWNAAMEKLTGWSKHEVIGKMLPGEVFGVFCKVKCQDSLTKFLISLYQGIAGDNVPESSLVEFFNKEGKYIEASLTANKSTNIEGKVIRCFFFLQIINKESGLSCPELKESAQSLNELTYVRQEIKNPLNGIRFAHKLLESSEISASQRQFLETSDACEKQITTIIESTDLKSIEEGKLQLETEEFRLENILDTIISQVMIILRERNSQLRVEVAEEIKTLPLNGDRVKLQLILADLLRNIVNHAPFPNSWVGISISPGQELSRDNGRYIHLQFRMIHPGKGLPSEMLSDMFETRDGWVTPDGLGLKLSRKLLEQMNGRVSYVREDERCFFQVDLQVKTMLGVESRGTEGSSSIK
B4: GAPCP1 (enzyme, UniProt Q9SAJ6 70-422)
chain: TATEVPSAVRRSSSSGKTKVGINGFGRIGRLVLRIATSRDDIEVVAVNDPFIDAKYMAYMLKYDSTHGNFKGSINVIDDSTLEINGKKVNVVSKRDPSEIPWADLGADYVVESSGVFTTLSKAASHLKGGAKKVIISAPSADAPMFVVGVNEHTYQPNMDIVSNASCTTNCLAPLAKVVHEEFGILEGLMTTVHATTATQKTVDGPSMKDWRGGRGASQNIIPSSTGAAKAVGKVLPELNGKLTGMAFRVPTSNVSVVDLTCRLEKGASYEDVKAAIKHASEGPLKGILGYTDEDVVSNDFVGDSRSSIFDANAGIGLSKSFVKLVSWYDNEWGYSNRVLDLIEHMALVAASH
B5: SUPPRESSOR OF PHYA-105 1 (SPA1) (protein, UniProt Q9SYX2 1-1029)
chain: MPVMERVAEETVATNNIQLKARVDDVPCNKLDARHNDMVIQSETANSDCPGSSAHRNVDLTKPPPPEEAAGAKLSVEELTLGNYRIVQGSNNTNVDSPRAGKFEHLYRLARGSAFRAGDGDLDSQPRDMDQMLSRIRQQLAGAPSERQNLKPFMSRRSDQNLEAFSERLRAAGENSIMNAPALISEGVQMKTPVSSSNFSQLLLKRAMKGKGVVGKNQETPPEFVSDQDLGSKEKKLDISKSPTPHDVLPLKSSPKGNGMVSHGDGNHSKSSIGISLREFLRSSYAKREKRHGLCLFRQLVELVDSAHSKRLFLLDLRPSLFTLVPSKKLRYIGNFGKNDLESDVDEDLNRRRPVVEESSSGGRDSKKRKMDLHLNSPGNQLQATSTGRPFKRKSPVIDLNMVDARNPDSCELQQQDYIKNLSVSSVSRKQSMSTWLEEQWYTCPEEINGEDIGEKSNIYALGVLLFELLCHCESGEMHAAMMADLRHRILPPTFLSKYPKEAGFCLWLLHPEPSSRPSARDILKSELICEDDSVKSTAAAEEISELLLHFLSSLEVQKKKKASKLLQDIQTLEDDIKEAERRYSSNVSLVRSHGAIEKRVQSSPLDEHCTTSSALFVPTANTDRLMSNIRQLEDAYFFMRSQINLSSSAATARSDKTLKDRDRCSENQNENQDMSTKGKSSDQLEVFFEGLCKFARYSKFETCGTIRSGDLLNSASVVCSLSFDPDEEHIAAAGISKKIKIFDFNAFMNESVGVHYPLVEMVNKSKLSCVCWNSYIKNYLASTDYDGVVQIWDAGTGQGFSQYTEHQKRAWSVDFSPSDPTKFVSGSDDCSVKLWSINEKRSLGTIWSPANVCCVQFSSYSNHLLAFGSADYKVYCYDLRYVKTPWCTLAGHEKAVSYVKFMDSETIVSASTDNSLKLWNLNKTNSSGLSPGACSLTYKGHTNQKNFVGLSVLDGYIACGSETNEVYSYYKSLPMPMTSYKFGSVDPISGNEYFDDNGQFVSSVCWRKKSNMLVAANSTGNMKLLKLV
B6: PCH1-like (PCHL) (protein, UniProt O65680 1-279)
chain: MSEHFMGLSKIKTESCVHGYESAWLSRWTPSNKNAKEIHLPEDGHLLKESTGPMKLKGKMLTLFPNLDSPVQSVDVIPDMNKEPPIVADRENSIDGEEEEASSQATQSKNVEHFLNNNTNLLRECKRIWSDSETNSRSQVKRLKTNAADNRGNETKNMMVFEEGPSGKKVNHFFHSIFGMTNLGSRRYQKFSTSQNKNLNMGEAEDVNPWIQRWCKRKAADVHEPRGGQEVNSNGTVLEKQQFPSIAAMAMMRKALSGINPTGCRKTNSLFVWNAEDLS

These are yes or no findings as the source states them, for the method shown. Some binding calls cover weakened binding; strength is not graded here. For part of these data: Where a sequence is shown, tags or fusion partners need not be part of it.

The target of one experiment is T1, phyB-GFP (Arabidopsis thaliana), P14713. In words: fluorescence-activated particle sorting of phyB-GFP photobodies with LC-MS/MS; photobodies sorted by green fluorescence (Alexa Fluor 488 anti-GFP antibody) from sonicated nuclei of PHYB-GFP leaves; proteins enriched over the pre-sorted nuclear extract by more than 2σ. As to conditions: remark: other sources report otherwise.
Turning to B1, the binding entry is “binds”.

In the next experiment the target is phyB-GFP (Arabidopsis thaliana) (UniProt P14713). Described as above.
Details: not given
Regarding B2, the binding entry is listed as “binds”.

In the case of B3, the binding entry is “binds”.

In the case of B4, the binding result was “no binding”.

With B5, the binding entry is reported as “binds”. Take B6: the binding entry is on record as “binds”.
